PubChem BioAssay AID1259425 – University of Nebraska Medical Center, 2018
In all, the deposit lists about 14,000 reagents; shown is an unselected part. Not all columns of the deposit are shown. Not given: the time to read-out.

Test: 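Find knockdowns that reproduce the gene expression pattern seen when KSR1 is lost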 (primary screen)
Cells: HCT116 human colon cancer cells
Reagent: siRNA pool against human genes, 50 nM siRNA
Measured: 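mRNA of six signature genes measured together by branched-DNA assay after 50 nM siRNA pool, blank removed, divided by geometric mean of two housekeeping genes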
Reading the numbers: BNIP3L mRNA: higher = more BNIP3L transcript after knockdown; NDRG1 mRNA: higher = more NDRG1 transcript after knockdown

CENPU (centromere protein U) → BNIP3L mRNA, set 1: 0.121; NDRG1 mRNA, set 1: 0.229
CLIC3 (CLIC family member 3) → BNIP3L mRNA, set 1: 0.0759; NDRG1 mRNA, set 1: 0.269
RUFY2 (RUN and FYVE domain containing 2) → BNIP3L mRNA, set 1: 0.0553; NDRG1 mRNA, set 1: 0.0761
SCTR (secretin receptor) → BNIP3L mRNA, set 1: 0.286; NDRG1 mRNA, set 1: 0.334
TSNAXIP1 (translin associated factor X interacting protein 1) → BNIP3L mRNA, set 1: 0.133; NDRG1 mRNA, set 1: 0.0677
EPG5 (ectopic P-granules 5 autophagy tethering factor) → BNIP3L mRNA, set 1: 0.279; NDRG1 mRNA, set 1: 0.614
GOLIM4 (golgi integral membrane protein 4) → BNIP3L mRNA, set 1: 0.109; NDRG1 mRNA, set 1: 0.233
WDR37 (WD repeat domain 37) → BNIP3L mRNA, set 1: 0.0828; NDRG1 mRNA, set 1: 0.669
RPL21 (ribosomal protein L21) → BNIP3L mRNA, set 1: 0.546; NDRG1 mRNA, set 1: 0.481
CD59 (CD59 molecule (CD59 blood group)) → BNIP3L mRNA, set 1: 0.106; NDRG1 mRNA, set 1: 0.0923
GET3 (guided entry of tail-anchored proteins factor 3, ATPase) → BNIP3L mRNA, set 1: 0.158; NDRG1 mRNA, set 1: 0.112
CPLX1 (complexin 1) → BNIP3L mRNA, set 1: 0.114; NDRG1 mRNA, set 1: 0.0424
DPT (dermatopontin) → BNIP3L mRNA, set 1: 0.109; NDRG1 mRNA, set 1: 0.538
CEBPD (CCAAT enhancer binding protein delta) → BNIP3L mRNA, set 1: 0.0513; NDRG1 mRNA, set 1: 0.232
ZXDA (zinc finger X-linked duplicated A) → BNIP3L mRNA, set 1: 0.248; NDRG1 mRNA, set 1: 0.898
MCTS1 (MCTS1 re-initiation and release factor) → BNIP3L mRNA, set 1: 0.0724; NDRG1 mRNA, set 1: 0.0656
SOX30 (SRY-box transcription factor 30) → BNIP3L mRNA, set 1: 0.143; NDRG1 mRNA, set 1: 0.29
RPAP1 (RNA polymerase II associated protein 1) → BNIP3L mRNA, set 1: 0.247; NDRG1 mRNA, set 1: 1.08
TMPO (thymopoietin) → BNIP3L mRNA, set 1: 0.104; NDRG1 mRNA, set 1: 0.363
ACTA1 (actin alpha 1, skeletal muscle) → BNIP3L mRNA, set 1: 0.0973; NDRG1 mRNA, set 1: 0.558
DNALI1 (dynein axonemal light intermediate chain 1) → BNIP3L mRNA, set 1: 0.0587; NDRG1 mRNA, set 1: 0.102
APBB1IP → BNIP3L mRNA, set 1: 0.264; NDRG1 mRNA, set 1: 0.16
TCIM (transcriptional and immune response regulator) → BNIP3L mRNA, set 1: 0.175; NDRG1 mRNA, set 1: 0.232
QSOX1 (quiescin sulfhydryl oxidase 1) → BNIP3L mRNA, set 1: 0.0387; NDRG1 mRNA, set 1: 0.0768
PSMD8 (proteasome 26S subunit, non-ATPase 8) → BNIP3L mRNA, set 1: 0.0706; NDRG1 mRNA, set 1: 0.149
STATH (statherin) → BNIP3L mRNA, set 1: 0.121; NDRG1 mRNA, set 1: 0.29
PPP2R2B (protein phosphatase 2 regulatory subunit Bbeta) → BNIP3L mRNA, set 1: 0.0536; NDRG1 mRNA, set 1: 0.189
CLEC4M (C-type lectin domain family 4 member M) → BNIP3L mRNA, set 1: 0.0435; NDRG1 mRNA, set 1: 0.173

Quoted from above (3 entries):
RUFY2 (RUN and FYVE domain containing 2) → BNIP3L mRNA, set 1: 0.0553; NDRG1 mRNA, set 1: 0.0761
SCTR (secretin receptor) → BNIP3L mRNA, set 1: 0.286; NDRG1 mRNA, set 1: 0.334
TSNAXIP1 (translin associated factor X interacting protein 1) → BNIP3L mRNA, set 1: 0.133; NDRG1 mRNA, set 1: 0.0677
